Measurements as given in patent US20030186334A1, “KTS-disintegrins” (Temple University - Of the Commonwealth System of Higher …, priority 2001, published 2003).
For at least one compound, name, drawing or mass did not settle the structure. Residues, ends and D or L forms follow the SMILES beside them.

Protein sequences, listed by entry. Tags and fused reporters are not part of them. Residues count along the entry.
UniProt P56199, 29-1179: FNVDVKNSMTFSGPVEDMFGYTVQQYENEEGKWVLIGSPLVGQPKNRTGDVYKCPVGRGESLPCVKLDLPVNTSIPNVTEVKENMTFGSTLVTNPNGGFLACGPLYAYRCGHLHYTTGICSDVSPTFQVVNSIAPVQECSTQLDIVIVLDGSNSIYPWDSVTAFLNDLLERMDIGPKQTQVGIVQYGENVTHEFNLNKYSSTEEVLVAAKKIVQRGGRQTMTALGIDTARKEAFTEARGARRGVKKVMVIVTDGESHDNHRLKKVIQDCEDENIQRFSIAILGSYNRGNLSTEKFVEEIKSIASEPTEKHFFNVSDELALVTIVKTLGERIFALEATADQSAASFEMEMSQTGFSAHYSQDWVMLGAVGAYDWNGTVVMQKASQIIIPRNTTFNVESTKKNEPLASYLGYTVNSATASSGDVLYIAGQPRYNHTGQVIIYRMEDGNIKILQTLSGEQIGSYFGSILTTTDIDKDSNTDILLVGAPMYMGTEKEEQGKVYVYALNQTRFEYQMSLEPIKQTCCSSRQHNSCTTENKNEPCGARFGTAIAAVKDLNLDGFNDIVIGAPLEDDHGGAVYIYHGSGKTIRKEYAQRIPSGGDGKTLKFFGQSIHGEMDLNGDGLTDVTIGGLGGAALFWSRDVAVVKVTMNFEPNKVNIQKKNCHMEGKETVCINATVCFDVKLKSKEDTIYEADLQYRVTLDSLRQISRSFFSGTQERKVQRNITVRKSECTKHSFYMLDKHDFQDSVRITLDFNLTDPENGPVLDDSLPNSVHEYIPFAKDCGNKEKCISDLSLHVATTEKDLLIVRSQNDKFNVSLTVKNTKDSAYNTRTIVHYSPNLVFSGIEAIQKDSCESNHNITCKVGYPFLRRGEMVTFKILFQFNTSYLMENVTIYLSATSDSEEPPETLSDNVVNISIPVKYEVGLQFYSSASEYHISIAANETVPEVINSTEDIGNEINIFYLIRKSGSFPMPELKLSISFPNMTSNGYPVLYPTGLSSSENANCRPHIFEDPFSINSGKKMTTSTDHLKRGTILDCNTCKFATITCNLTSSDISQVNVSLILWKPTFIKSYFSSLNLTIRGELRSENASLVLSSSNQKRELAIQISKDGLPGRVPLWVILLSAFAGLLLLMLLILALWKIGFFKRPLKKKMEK

Molecular target: T1, α1β1 integrin (Homo sapiens, UniProt P05556+P56199)
T1 construct: expressed in transfected cells; host or cells: α1K562 cells
Test: adhesion of α1K562 cells to immobilized collagen IV
Assay type: cell-based
Description: Collagen IV (0.2 μg/well) in 0.02 M acetic acid was immobilized by incubation overnight at 4° C. on a 96-well plate. Plates were then blocked with 1% (w/v) BSA (bovine serum albumin) in Hank's Balanced Salt Solution (HBSS) containing 3 mM Mg^2+ at room temperature for 1-2 hours to prevent cells from non-specifically binding to the plates. α1K562 cells were labeled by incubation with 12.5 μM 5-chloromethylfluorescein diacetete (CMFDA) in HBSS for 15 minutes at 37° C. CMFDA labeled α1K562 cells were then pelleted, washed and resuspended in HBSS buffer containing 3 mM Mg^2+ and 1% BSA. […] The plates were washed three times with HBSS containing 3 mM Mg^2+ and 1% (w/v) BSA to remove unbound cells. Bound cells were lysed using 0.5% (v/v) Triton X-100 in H2O. Fluorescent CMFDA released by lysis of adherent cells in a given well was read using a Cytofluor 2350 fluorescence plate reader.
Adhesive ligands for the selected integrins consisted of collagen IV (0.2 μg/well), collagen I, fibronectin, or vascular cell adhesion molecule-1 (VCAM-1). […] Fluorescent CMFDA released by lysis of adherent cells in a given well was read using a Cytofluor 2350 fluorescence plate reader.
The effect of obtustatin, viperisrastatin, echistatin, and eristostatin on the binding of selected integrins to their adhesive ligands was evaluated using the cell adhesion assay described in Example 6. […]

Compound: CC(C)C[C@H](NC(=O)[C@H](CO)NC(=O)[C@@H](NC(=O)[C@H](CCCCN)NC(=O)[C@H](Cc1c[nH]c2ccccc12)NC(=O)[C@@H](N)CS)[C@@H](C)O)C(=O)N[C@H](C(=O)N[C@@H](CO)C(=O)N[C@@H](Cc1c[nH]cn1)C(=O)N[C@@H](Cc1ccc(O)cc1)C(=O)N[C@@H](CS)C(=O)O)[C@@H](C)O (H-CWKTSLTSHYC-OH)
- IC50: 600 µM
